In patent US20160039934A1 (AFFIRMED, published 2016):
These are yes or no findings as the source states them, for the method shown. Some results given as binding are weak or reduced against the parent protein; the word gives no strength.

Chains of the proteins cited; added tags and fusions are not shown. Residues count along the entry.
UniProt Q95LI5, residues 22-198: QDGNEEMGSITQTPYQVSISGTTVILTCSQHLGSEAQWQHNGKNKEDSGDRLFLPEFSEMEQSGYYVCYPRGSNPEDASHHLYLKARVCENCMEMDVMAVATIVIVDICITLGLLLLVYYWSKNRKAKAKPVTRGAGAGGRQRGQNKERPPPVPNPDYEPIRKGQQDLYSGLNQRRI
UniProt P07766, residues 23-207: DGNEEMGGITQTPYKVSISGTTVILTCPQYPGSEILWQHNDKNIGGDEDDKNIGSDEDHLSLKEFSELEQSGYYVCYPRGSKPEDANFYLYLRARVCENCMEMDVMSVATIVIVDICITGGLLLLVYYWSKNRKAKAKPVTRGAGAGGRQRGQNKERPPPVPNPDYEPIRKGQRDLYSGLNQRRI

Assays:
cynomolgus CD3 [1] = target: T1, cynomolgus CD3 (cynomolgus, UniProt Q95LI5 22-198); assay: flow cytometry on HSC-F cells
T1 construct: whole, on cells; CD3 is a multi-chain complex; also called CD3 on cynomolgus CD3+ HSC-F cells; cynomolgus CD3-expressing cell line (HSC-F)

cynomolgus CD3 [2] = target: T1, cynomolgus CD3; assay: summary of the flow cytometry results
human CD3 = target: T2, human CD3 (human, UniProt P07766 23-207); assay: flow cytometry on Jurkat cells
T2 construct: whole, on cells; CD3 is a multi-chain complex; also called CD3 on human CD3+ Jurkat cells; CD3+ human T cell line (Jurkat)

binding (cynomolgus CD3 [1]): binds | binding (cynomolgus CD3 [2]): binds | binding (human CD3): binds
B1: TandAb E (var_z) (SEQ ID NO:12) (bispecific antibody)
chain: DIQMTQSPSSLSASVGDRVTITCRSSTGAVTTSNYANWVQQKPGKAPKGLIGGTNKRAPGVPSRFSGSLIGDKATLTISSLQPEDFATYYCALWYSNLWVFGQGTKVEIKGGSGGSEVQLVQSGAEVKKPGESLKISCKGSGYSFTSYWIGWVRQMPGKGLEWMGIIYPGDSDTRYSPSFQGQVTISADKSISTAYLQWSSLKASDTAMYYCARLGSSWTNDAFDIWGQGTMVTVSSGGSGGSSYELTQPPSVSVSPGQTARITCSGDALPKQYAYWYQQKPGQAPVLVIYKDSERPSGIPERFSGSSSGTTVTLTISGVQAEDEADYYCQSADSSGTPLIVFGTGTKLTVLGGSGGSEVQLVESGGGLVQPGGSLRLSCAASGFTFSTYAMNWVRQAPGKGLEWVGRIRSKYNNYATYYADSVKDRFTISRDDSKNSLYLQMNSLKTEDTAVYYCARHGNFGNSYVSHFAYWGQGTLVTVSSAAAGSHHHHHH
notes: Homodimeric tandem diabody; Detected by anti-His mAb
